Measured values as given in article PMC5766566, “Characterization of human small heat shock protein HSPB1 α-crystallin domain localized mutants associated with hereditary motor neuron diseases” (Scientific Reports, 2018).
Numbering of substitutions follows the chain as printed. These are yes or no findings as the source states them, for the method shown. Some results given as binding are weak or reduced against the parent protein; the word gives no strength. One block for each substance: values may come before it.

The chains behind the UniProt entries cited, without tags or fusion partners. Where a name states a change or a piece, a line headed by the entry shows the natural chain unless it says otherwise.
UniProt P04792: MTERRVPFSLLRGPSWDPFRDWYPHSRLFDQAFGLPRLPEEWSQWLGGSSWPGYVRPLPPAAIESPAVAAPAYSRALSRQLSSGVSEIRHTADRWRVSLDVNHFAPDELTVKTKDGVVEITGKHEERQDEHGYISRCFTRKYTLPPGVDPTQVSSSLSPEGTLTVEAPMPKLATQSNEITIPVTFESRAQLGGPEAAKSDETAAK

Assays:
[1] = molecular target: T1, human HSPB6 C46S/E116C double mutant (human) (UniProt O14558); assay: cross-linking; disulfide cross-linking of mixtures: 50 μM of each protein in 50 mM sodium phosphate pH 7.5, 100 mM NaCl, 5 mM DTT overnight at 37 °C, then dialysis without DTT at 20 °C for 24 h; non-reducing SDS-PAGE; both purified
T1 sequence: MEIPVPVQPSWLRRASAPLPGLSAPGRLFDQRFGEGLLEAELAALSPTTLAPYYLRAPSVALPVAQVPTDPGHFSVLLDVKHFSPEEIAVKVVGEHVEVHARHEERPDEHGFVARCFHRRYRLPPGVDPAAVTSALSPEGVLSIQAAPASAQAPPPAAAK

human HSPB1 S135F mutant = molecular target: T2, human HSPB1 S135F mutant (human, UniProt P04792 1-205, S135F); assay: cross-linking; disulfide cross-linking of each HSPB1 variant alone: dialysis at 20 °C for 24 h against 50 mM sodium phosphate pH 7.5, 100 mM NaCl with or without 5 mM DTT; non-reducing SDS-PAGE; both purified
T2 construct: HSPB1 (HSP27), human, with the autosomal dominant Charcot-Marie-Tooth mutation S135F; Disease mutation found in patients; Probably the whole protein; SUMO carrier probably removed (subtractive IMAC); The abstract once prints R135F for this mutant; source: recombinant (pET23b or pETHSUK construct), expressed as described earlier; purified (ammonium sulfate fractionation, anion-exchange, SEC; or …)

[2] = molecular target: T3, human HSPB6, wild type (human) (UniProt O14558); assay: condition: only preincubated at 4 °C (30 μM per monomer of each); SEC; equimolar mixture, 30 μM per monomer of each sHSP in buffer S, preincubated at 4 °C for 1 hr, then Superdex 200 HR; both purified
T3 sequence: T1 sequence with S46C, C116E

Substance: human HSPB1 R136W mutant (from UniProt P04792 1-205)
binding [1]: no binding (tested: 50 μM of each protein)

binding (human HSPB1 S135F mutant): binds weakly
Substance: human HSPB1 S135F mutant (from UniProt P04792 1-205)

binding [2]: no binding
Substance: human small heat shock protein HSPB1, wild type (from UniProt P04792 1-205)
